These are yes or no findings as the source states them, for the method shown. In cells and extracts the contact can be indirect. These calls come from enrichment with a bait or labelling near it, and not all partners need be listed. For some assays here: No binding means not detected with the bait.
Tests used:
Experiment in all cases: affinity purification with mass spectrometry
ASXL1 (human) = ASXL1 (human) (UniProt Q8IXJ9)
ASXL2 (human) = ASXL2 (human) (UniProt Q76L83)
BAP1 (human) = BAP1 (human) (UniProt Q92560)
OGT1 (human) = molecular target: T1, OGT1 (human) (UniProt O15294)
T1 sequence: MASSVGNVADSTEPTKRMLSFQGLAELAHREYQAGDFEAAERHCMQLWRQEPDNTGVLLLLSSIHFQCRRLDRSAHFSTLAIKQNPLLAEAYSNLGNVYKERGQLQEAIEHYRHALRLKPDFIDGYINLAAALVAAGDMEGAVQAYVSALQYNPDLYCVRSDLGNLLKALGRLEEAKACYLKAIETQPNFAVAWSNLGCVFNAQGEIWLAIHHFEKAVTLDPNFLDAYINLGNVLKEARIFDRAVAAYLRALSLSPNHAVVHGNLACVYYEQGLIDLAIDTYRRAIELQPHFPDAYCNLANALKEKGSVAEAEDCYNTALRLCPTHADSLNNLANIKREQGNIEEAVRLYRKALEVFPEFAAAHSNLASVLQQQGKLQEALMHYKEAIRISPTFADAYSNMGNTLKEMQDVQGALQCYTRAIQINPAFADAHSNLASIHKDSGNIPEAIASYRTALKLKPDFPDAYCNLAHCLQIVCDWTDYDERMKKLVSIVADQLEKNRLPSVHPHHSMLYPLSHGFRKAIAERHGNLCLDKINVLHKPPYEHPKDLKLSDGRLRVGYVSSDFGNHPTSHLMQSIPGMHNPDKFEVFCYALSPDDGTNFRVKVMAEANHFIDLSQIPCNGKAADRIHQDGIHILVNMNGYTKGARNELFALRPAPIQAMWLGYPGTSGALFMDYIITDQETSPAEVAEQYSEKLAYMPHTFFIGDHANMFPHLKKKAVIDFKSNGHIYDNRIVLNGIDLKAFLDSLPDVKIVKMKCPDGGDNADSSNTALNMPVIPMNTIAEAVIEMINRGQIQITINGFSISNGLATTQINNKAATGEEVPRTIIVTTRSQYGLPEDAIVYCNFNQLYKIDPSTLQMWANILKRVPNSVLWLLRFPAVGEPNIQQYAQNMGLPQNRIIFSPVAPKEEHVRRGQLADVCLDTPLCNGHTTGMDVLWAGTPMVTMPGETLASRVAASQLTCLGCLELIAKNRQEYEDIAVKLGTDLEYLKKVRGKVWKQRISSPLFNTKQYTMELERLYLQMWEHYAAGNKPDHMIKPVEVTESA

Amino acid sequences for entries named in this document (tags omitted).
UniProt Q8IXJ9: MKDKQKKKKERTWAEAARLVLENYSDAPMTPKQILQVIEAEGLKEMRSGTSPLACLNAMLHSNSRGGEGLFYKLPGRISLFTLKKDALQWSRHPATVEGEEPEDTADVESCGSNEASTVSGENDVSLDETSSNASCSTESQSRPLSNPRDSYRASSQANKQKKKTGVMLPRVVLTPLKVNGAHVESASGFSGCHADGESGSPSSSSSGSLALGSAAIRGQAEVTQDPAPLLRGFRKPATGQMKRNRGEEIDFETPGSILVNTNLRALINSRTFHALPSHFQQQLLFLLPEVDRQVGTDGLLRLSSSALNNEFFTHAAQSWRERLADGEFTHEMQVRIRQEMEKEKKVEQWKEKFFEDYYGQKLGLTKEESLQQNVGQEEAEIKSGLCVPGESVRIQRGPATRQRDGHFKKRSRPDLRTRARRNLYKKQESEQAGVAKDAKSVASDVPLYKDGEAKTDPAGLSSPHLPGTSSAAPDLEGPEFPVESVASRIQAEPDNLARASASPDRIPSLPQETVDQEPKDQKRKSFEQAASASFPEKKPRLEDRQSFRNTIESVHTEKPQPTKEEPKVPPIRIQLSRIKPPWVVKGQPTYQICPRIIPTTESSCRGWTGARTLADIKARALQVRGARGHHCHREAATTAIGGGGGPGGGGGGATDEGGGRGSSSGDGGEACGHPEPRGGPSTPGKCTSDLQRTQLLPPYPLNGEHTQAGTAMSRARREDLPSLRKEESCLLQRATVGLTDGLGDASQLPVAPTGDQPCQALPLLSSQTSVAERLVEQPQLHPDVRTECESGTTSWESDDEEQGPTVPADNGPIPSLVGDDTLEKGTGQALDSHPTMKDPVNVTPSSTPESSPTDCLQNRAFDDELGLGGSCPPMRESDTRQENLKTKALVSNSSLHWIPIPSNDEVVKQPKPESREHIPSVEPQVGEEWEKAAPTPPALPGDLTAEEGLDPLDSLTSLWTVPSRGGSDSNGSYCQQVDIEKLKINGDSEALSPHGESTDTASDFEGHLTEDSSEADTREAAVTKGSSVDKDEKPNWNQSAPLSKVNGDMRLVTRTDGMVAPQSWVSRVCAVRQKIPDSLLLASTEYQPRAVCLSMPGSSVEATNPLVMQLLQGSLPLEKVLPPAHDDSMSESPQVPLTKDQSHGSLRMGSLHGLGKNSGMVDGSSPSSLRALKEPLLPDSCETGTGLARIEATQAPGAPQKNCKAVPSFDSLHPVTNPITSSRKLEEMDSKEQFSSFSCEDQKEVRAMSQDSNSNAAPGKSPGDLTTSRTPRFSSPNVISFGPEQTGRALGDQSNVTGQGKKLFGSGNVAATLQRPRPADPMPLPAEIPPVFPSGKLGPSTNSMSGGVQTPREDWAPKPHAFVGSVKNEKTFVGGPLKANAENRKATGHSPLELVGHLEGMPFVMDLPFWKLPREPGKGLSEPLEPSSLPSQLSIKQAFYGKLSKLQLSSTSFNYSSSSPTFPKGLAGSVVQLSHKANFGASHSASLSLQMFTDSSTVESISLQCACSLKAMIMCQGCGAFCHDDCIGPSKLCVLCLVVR
UniProt Q76L83: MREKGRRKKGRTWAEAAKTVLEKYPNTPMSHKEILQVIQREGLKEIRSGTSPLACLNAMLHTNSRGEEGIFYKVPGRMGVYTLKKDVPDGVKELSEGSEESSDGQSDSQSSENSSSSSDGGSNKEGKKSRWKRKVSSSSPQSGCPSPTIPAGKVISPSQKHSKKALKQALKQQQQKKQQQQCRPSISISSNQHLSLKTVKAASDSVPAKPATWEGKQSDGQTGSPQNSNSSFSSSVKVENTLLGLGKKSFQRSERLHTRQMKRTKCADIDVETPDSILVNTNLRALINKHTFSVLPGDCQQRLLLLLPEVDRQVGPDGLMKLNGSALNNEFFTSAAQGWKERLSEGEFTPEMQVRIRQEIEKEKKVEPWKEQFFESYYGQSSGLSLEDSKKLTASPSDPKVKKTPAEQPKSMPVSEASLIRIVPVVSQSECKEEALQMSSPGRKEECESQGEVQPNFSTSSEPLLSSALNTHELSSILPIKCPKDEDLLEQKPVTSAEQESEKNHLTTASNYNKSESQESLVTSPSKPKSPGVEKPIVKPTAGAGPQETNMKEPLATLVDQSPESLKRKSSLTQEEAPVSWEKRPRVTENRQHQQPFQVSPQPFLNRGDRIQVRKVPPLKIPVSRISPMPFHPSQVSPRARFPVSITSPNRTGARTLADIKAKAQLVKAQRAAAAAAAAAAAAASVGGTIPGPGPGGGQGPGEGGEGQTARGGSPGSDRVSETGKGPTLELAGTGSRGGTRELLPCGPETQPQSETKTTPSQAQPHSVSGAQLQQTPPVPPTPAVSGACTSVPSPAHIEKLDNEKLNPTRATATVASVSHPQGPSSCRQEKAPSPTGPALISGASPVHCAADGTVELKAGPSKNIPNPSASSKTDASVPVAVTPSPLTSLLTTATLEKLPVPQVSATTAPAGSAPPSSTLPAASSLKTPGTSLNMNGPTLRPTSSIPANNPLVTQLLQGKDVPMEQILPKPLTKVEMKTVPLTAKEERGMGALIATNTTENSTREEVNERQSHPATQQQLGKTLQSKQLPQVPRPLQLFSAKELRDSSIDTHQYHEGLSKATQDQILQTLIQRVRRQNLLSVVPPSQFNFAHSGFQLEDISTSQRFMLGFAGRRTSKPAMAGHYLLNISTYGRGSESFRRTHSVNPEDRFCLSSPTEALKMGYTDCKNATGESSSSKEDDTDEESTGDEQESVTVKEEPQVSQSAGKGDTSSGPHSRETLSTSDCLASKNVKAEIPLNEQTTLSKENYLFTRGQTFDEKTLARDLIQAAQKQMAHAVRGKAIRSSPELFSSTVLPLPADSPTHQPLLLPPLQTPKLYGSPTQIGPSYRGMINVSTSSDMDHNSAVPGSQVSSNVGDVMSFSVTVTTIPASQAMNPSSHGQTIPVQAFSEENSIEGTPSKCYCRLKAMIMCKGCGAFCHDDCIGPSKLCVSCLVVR
UniProt Q92560: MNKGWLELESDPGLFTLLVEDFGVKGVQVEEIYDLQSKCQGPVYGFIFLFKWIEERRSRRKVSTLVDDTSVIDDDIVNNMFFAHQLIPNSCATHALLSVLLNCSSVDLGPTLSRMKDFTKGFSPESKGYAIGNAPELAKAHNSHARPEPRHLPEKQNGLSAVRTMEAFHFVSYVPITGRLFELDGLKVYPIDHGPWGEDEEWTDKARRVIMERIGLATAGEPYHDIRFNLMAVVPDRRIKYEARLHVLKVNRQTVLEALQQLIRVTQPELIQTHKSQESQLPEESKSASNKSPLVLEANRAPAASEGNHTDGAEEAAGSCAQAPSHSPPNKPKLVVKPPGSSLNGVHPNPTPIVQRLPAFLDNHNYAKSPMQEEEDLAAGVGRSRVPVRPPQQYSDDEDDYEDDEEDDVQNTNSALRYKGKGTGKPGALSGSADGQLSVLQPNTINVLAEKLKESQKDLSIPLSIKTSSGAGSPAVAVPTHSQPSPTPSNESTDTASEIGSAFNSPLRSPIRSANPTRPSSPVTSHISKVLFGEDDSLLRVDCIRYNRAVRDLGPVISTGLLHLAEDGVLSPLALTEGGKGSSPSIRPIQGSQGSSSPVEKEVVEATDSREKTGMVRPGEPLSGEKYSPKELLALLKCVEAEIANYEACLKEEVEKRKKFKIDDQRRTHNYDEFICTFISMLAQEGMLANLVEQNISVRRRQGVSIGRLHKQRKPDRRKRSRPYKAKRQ
UniProt P31629: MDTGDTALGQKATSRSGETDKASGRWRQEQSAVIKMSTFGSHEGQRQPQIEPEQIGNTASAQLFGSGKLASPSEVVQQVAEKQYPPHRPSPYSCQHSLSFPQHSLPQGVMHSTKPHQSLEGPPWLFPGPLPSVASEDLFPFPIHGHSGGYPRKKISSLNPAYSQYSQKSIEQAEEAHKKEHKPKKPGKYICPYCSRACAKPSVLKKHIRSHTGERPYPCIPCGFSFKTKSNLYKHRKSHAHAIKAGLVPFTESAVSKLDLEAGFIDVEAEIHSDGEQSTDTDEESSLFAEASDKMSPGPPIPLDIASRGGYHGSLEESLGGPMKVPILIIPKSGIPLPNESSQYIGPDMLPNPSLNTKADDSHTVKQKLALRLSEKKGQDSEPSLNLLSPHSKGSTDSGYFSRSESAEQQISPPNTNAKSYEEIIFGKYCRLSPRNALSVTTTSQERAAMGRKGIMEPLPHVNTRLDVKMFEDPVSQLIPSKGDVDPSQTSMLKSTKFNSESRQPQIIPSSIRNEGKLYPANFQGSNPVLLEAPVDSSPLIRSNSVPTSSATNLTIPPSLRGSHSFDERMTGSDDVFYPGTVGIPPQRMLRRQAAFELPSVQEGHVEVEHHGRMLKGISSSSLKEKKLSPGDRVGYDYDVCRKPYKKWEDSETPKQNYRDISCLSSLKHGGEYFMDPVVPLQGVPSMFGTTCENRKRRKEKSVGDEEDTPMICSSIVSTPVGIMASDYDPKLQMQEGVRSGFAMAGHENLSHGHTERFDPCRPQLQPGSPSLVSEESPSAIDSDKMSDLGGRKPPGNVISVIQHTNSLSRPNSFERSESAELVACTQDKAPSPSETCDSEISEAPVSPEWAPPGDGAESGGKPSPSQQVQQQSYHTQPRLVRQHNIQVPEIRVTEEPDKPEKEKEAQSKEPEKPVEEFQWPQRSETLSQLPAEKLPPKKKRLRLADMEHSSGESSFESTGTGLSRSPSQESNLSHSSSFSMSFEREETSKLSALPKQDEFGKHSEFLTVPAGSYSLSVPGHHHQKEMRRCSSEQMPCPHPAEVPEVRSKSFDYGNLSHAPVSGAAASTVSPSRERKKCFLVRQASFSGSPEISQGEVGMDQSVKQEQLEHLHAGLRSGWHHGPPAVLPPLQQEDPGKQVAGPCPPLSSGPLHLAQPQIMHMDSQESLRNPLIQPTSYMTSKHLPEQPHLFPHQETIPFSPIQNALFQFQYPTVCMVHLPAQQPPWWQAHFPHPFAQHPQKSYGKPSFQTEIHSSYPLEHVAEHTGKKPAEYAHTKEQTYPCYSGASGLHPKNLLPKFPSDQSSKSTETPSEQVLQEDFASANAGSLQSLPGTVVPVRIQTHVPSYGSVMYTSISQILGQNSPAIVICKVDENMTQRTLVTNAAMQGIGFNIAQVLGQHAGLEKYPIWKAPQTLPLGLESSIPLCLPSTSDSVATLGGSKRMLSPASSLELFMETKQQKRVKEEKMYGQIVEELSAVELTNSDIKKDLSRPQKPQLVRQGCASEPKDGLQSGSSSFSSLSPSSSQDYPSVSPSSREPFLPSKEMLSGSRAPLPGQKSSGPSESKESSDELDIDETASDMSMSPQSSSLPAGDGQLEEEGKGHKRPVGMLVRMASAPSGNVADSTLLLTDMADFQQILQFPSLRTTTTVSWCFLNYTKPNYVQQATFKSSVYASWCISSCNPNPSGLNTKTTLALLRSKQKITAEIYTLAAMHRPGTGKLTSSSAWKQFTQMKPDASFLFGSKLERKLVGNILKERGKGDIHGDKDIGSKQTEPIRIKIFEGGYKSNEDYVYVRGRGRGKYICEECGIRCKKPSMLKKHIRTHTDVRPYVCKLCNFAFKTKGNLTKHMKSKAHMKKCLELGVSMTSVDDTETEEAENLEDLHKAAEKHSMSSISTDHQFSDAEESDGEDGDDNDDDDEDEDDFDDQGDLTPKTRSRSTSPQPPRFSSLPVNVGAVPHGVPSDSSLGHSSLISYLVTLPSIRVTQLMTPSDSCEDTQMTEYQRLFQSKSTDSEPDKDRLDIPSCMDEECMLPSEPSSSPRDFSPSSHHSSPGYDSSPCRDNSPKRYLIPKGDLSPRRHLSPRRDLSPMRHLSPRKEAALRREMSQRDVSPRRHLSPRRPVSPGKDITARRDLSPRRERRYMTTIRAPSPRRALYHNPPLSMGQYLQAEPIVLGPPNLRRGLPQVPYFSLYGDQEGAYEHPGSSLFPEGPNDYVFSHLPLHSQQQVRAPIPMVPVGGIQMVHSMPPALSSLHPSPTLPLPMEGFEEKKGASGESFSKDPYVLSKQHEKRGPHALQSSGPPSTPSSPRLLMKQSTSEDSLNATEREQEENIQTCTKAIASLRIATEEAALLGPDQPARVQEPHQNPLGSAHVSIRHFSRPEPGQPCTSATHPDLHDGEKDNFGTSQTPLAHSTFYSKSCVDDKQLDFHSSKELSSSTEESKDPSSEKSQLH

LCOR (human) = molecular target: T2, LCOR (human) (UniProt Q96JN0)
T2 sequence: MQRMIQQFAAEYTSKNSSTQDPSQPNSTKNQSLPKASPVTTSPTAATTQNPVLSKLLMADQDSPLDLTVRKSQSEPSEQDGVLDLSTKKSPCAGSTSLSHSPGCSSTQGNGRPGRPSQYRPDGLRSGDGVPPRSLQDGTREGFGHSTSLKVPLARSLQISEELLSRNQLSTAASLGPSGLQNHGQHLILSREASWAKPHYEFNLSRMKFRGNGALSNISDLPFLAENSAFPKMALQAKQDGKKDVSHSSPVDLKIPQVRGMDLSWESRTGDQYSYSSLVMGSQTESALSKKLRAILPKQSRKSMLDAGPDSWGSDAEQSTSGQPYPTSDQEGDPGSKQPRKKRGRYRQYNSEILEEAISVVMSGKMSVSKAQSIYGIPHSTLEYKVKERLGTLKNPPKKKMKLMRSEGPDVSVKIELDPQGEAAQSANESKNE

binding (ASXL1 (human)) | binding (ASXL2 (human)) | binding (BAP1 (human)) | binding (OGT1 (human)) | binding (LCOR (human)) | Substance
no binding | no binding | no binding | binds | – | ZEP2 (from UniProt P31629 1-2446)
– | – | – | – | binds | CTBP2 (from UniProt P56545 1-445)

— paper doi:10.1101/059964
